Experimental data: PubChem BioAssay AID1053208 (Peter MacCallum Cancer Centre, 2014)

- Screen: 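Genes whose silencing cuts survival of bone tumour cells only with doxorubicin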 (primary screen)
- Cell system: mouse osteosarcoma cells, early-passage culture from an engineered mouse model of fibroblastic bone tumour
- Knock-down reagent: siRNA pool against mouse genes, 40 nM
- Timing: about 120 h (48 h before drug, then 72 h with drug)
- Conditions: doxorubicin 100 nM for 72 h, roughly 30-40% inhibitory dose
- Detection: 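Luminescent ATP signal taken as viability with or without 100 nM doxorubicin for 72 h; mean of two wells set against non-targeting siRNA and turned into robust z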
- Direction: viability z-score with doxorubicin: higher = more viable cells under doxorubicin; viability z-score without drug: higher = more viable cells with knock-down alone
- Call rule: 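Called active if knock-down leaves viability unchanged without drug (z within -2 to 2) but lowers it with doxorubicin (z at or under -2)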
In all, the deposit lists about 17,000 reagents; this is an unselected part. 788 of all reagents (4.7%) were called active. 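Calls rest on z-score classes alone; an extra cut-off of viability at most 70% of control was not applied to them.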 A number with no mark means an inactive call. Not all columns of the deposit are shown.

After knock-down of Zfp369, the screen gave combined z-score class no change with or without drug; viability z-score with doxorubicin -1.35; viability z-score without drug 0.51.
With knock-down of Clptm1, the screen gave combined z-score class low cell count with doxorubicin only (active); viability z-score with doxorubicin -3.04; viability z-score without drug -0.51.
Or6c212 gave combined z-score class no change with or without drug; viability z-score with doxorubicin -0.9; viability z-score without drug -0.84.
With knock-down of Pomt2, the screen gave combined z-score class no change with or without drug; viability z-score with doxorubicin 0.45; viability z-score without drug 0.17.
Against Myb, the values are combined z-score class no change with or without drug; viability z-score with doxorubicin 1.24; viability z-score without drug -0.17.
Wdfy1 gave combined z-score class high cell count without drug only; viability z-score with doxorubicin 1.57; viability z-score without drug 2.19.
Fasl gave combined z-score class no change with or without drug; viability z-score with doxorubicin 1.57; viability z-score without drug 1.35.
For V1rg10, the entry reads combined z-score class no change with or without drug; viability z-score with doxorubicin 1.24; viability z-score without drug 1.18.
Mrgprh scored combined z-score class no change with or without drug; viability z-score with doxorubicin -1.24; viability z-score without drug -1.18.
For Serbp1, the entry reads combined z-score class no change with or without drug; viability z-score with doxorubicin -0.67; viability z-score without drug 0.34.
For Lmbr1l, the entry reads combined z-score class no change with or without drug; viability z-score with doxorubicin 0; viability z-score without drug 0.34.
Silencing of Gpr137b came out at: combined z-score class no change with or without drug; viability z-score with doxorubicin 0.9; viability z-score without drug -0.51.

An excerpt from above, reduced to “combined z-score class”:
V1rg10: no change with or without drug
Mrgprh: no change with or without drug
